Reference: PMC12866682 (2025)

Protein sequences, listed by entry. Tags and fused reporters are not part of them. Residues count along the entry.
UniProt Q9NZC2, residues 19-174: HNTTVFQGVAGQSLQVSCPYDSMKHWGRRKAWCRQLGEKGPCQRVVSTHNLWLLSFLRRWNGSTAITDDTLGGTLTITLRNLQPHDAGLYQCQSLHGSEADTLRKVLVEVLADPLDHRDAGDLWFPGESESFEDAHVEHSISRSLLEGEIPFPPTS

Target: hTREM2-Fc (human) (UniProt Q9NZC2)
Experiment: affinity purification with mass spectrometry; NETs proteins of SLE patients (DNase I treated, acetone precipitated, dissolved in cell lysis buffer with PMSF) incubated with hTREM2-Fc or control IgG1 and Protein A/G agarose beads for a night at 4 °C; beads washed five times; Orbitrap Fusion Lumos; only the target purified

Row | Binder | binding
1 | azurocidin (AZU1) of neutrophil extracellular traps (protein, UniProt P20160 27-251) IVGGRKARPRQFPFLASIQNQGRHFCGGALIHARFVMTAASCFQSQNPGVSTVVLGAYDLRRRERQSRQTFSISSMSENGYDPQQNLNDLMLLQLDREANLTSSVTILPLPLQNATVEAGTRCQVAGWGSQRSGGRLSRFPRFVNVTVTPEDQCRPNNVCTGVLTRRGGICNGDGGTPLVCEGLAHGVASFSLGPCGRGPDFFTRVALFRDWIDGVLNNPGPGPA | binds
2 | cathepsin G (CTSG) of neutrophil extracellular traps (protein, UniProt P08311 21-244) IIGGRESRPHSRPYMAYLQIQSPAGQSRCGGFLVREDFVLTAAHCWGSNINVTLGAHNIQRRENTQQHITARRAIRHPQYNQRTIQNDIMLLQLSRRVRRNRNVNPVALPRAQEGLRPGTLCTVAGWGRVSMRRGTDTLREVQLRVQRDRQCLRIFGSYDPRRQICVGDRRERKAAFKGDSGGPLLCNNVAHGIVSYGKSSGVPPEVFTRVSSFLPWIRTTMRS | binds

These are yes or no findings as the source states them, for the method shown. In cells and extracts the contact can be indirect. These calls come from enrichment with a bait or labelling near it, and not all partners need be listed.
